The nature of this assay: qHTS Assay for Lipid Storage Modulators in Drosophila S3 Cells.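 On cell number change: cells counted by Cell Tracker Red CMTPX staining in the red channel.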 The following applies: BODIPY lipid droplet fluorescence, 18-24 h; for cell number change: measured here: cell count max response, cells fed with added oleic acid. Put shortly: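 Drosophila S3 cells got compounds at several concentrations plus oleic acid (400 uM solution). Laser-scanning cytometry with 488 nm excitation read lipid droplets at 500-530 nm and cells at 575-640 nm. Percent activity was relative to 20 uM Triacsin C.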
(In general: In qHTS, concentration-response curves come from the screen itself.)

Where [1] appears, read: measured here: lipid fluorescence (Fed channel) AC50, cells fed with added oleic acid.
Where [2] appears, read: measured here: cell number channel AC50, cells fed with added oleic acid.

Molecules are shown by their SMILES. Some of the results follow. These are further read-outs of the screen, such as a control signal, another cell line or another target. No call is given for them. The list favours compounds with an active or inconclusive main result. Potencies come from curve fits of mixed quality, noted in brackets.

As a reminder, the AC50 is the midpoint of the concentration-response curve, whichever way the signal moves. A low value points to activity at low concentration. As to `COc1ccc(-c2nn(-c3ccccc3)cc2C(=O)n2nnc3ccccc32)cc1`, the cell number change amounted to 7.37%. For the same compound, the AC50 under setting [1] is 0.326 µM [falling, partial curve, poor fit]. As to `N#Cc1c(-c2cccnc2)cc(-c2ccccc2)nc1N`, the AC50 under setting [1] is 0.82 µM [rising, full curve, poor fit].

Turning to `CCOC(=O)C1=C(C)NC(=O)NC1C1CC=CCC1` (stereo unspecified), under setting [1], the AC50 is 20.6 µM [falling, single point]. Turning to `COc1ccc(OCCSc2nnc3c(Cl)cc(Cl)cn23)cc1`, the cell number change was 0.852%. Moreover, under setting [1], the AC50 was 0.058 µM [rising, full curve, poor fit].

With `COc1ccccc1CNC(=O)C1CCC(=O)N1C(C)C` (stereo unspecified), the cell number change was found to be 31.2%. The AC50 under setting [2] was 18.4 µM [rising, single point]. For `O=C(Cn1c(O)c(/C=C2\C=Nc3ccccc32)sc1=O)Nc1ccc2c(c1)OCO2`, the cell number change was -9.13%. Also, the half-maximal activity concentration (AC50) under setting [1] is 9.2 µM [falling, partial curve]. As to `Cc1ccc(C23CC4CC(CC(C(=O)N5CCOCC5)(C4)C2)C3)cc1`, the cell number change is 68.8%. Also, the AC50 under setting [2] was 23.1 µM [rising, single point]. As for `CC(=O)c1ccc(NC(=O)[C@@H]2CCCN2C(=O)OC(C)(C)C)cc1`, the cell number change was determined as 3.6%. With `Cn1nc(-c2ccc(Cl)cc2)c2cc(C(=O)NCc3ccco3)sc21`, the cell number change turned out to be 77.8%. The AC50 under setting [2] was 2.06 µM [rising, full curve]. The concentration at half-maximal activity (AC50) under setting [1] was 1.64 µM [rising, partial curve].

As to `COc1ccccc1-c1cc(C(=O)Nc2cc(C)nn2-c2ccccc2)no1`, the AC50 under setting [2] is 6.51 µM [rising, partial curve, poor fit]. Turning to `COc1cc(SC)ccc1C(=O)OCC(=O)NC1CCCCC1`, the cell number change is 7.69%.

With `CCOCCn1ccc2c(OCC(=O)Nc3ccccc3F)cccc2c1=O`, the cell number change was 67.9%. In addition, the AC50 under setting [2] is 29.1 µM [rising, single point]. The AC50 under setting [1] is 29.1 µM [falling, single point].

Regarding `CCOC(=O)C1=C(c2ccccc2)OC(N)=C(C#N)C1c1ccncc1` (stereo unspecified), the cell number change was -33.4%. For the same compound, the AC50 under setting [2] was 4.11 µM [falling, full curve, poor fit]. Also, the AC50 under setting [1] was 20.6 µM [falling, single point]. Regarding `CCn1c(Sc2nc(C)nc3scc(-c4cccs4)c23)n[nH]c1=O`, the cell number change was -17.2%.

Consider `CCCCCc1c(C)nc(SCC(=O)O)[nH]c1=O`, for which the cell number change was -108%. Moreover, the AC50 under setting [2] was 4.61 µM [falling, partial curve]. In addition, the half-maximal activity concentration (AC50) under setting [1] is 4.61 µM [falling, partial curve]. Take `CCN(CC)CCCNC(=S)N1CCN(c2nc(-c3ccc(F)cc3)cs2)CC1`: the cell number change turned out to be 6.45%. The AC50 under setting [1] was 14.6 µM [falling, partial curve]. On to `Cc1ccc(S(=O)(=O)N2CCC(C(=O)OCC(=O)N3CCc4ccccc43)CC2)cc1`, for which, under setting [1], the AC50 is 2.31 µM [falling, full curve].

Source of the values: PubChem BioAssay AID2685 (National Center for Advancing Translational Sciences (NCATS), 2010).
